The target of this assay is T1, Kir6.2 from Mus musculus (mmKir6.2) H175K mutant, as the Kir6.2 subunit of H175K_(cryoEM) (Mus musculus) (UniProt Q61743).
T1 sequence: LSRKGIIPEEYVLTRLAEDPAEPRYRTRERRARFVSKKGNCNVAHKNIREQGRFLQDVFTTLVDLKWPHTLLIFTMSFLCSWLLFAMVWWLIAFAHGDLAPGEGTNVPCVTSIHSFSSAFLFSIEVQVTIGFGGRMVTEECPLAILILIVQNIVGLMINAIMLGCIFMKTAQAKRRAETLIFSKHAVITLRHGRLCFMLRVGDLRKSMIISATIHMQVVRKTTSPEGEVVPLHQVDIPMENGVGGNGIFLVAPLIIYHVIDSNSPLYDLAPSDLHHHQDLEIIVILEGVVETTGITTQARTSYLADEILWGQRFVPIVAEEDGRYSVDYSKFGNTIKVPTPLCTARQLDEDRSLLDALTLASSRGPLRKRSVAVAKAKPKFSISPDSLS
Nature of the assay: cryo-EM structure.

By UniProt entry, the sequences of proteins in these tests, tags left out.
UniProt A0A1U7R319: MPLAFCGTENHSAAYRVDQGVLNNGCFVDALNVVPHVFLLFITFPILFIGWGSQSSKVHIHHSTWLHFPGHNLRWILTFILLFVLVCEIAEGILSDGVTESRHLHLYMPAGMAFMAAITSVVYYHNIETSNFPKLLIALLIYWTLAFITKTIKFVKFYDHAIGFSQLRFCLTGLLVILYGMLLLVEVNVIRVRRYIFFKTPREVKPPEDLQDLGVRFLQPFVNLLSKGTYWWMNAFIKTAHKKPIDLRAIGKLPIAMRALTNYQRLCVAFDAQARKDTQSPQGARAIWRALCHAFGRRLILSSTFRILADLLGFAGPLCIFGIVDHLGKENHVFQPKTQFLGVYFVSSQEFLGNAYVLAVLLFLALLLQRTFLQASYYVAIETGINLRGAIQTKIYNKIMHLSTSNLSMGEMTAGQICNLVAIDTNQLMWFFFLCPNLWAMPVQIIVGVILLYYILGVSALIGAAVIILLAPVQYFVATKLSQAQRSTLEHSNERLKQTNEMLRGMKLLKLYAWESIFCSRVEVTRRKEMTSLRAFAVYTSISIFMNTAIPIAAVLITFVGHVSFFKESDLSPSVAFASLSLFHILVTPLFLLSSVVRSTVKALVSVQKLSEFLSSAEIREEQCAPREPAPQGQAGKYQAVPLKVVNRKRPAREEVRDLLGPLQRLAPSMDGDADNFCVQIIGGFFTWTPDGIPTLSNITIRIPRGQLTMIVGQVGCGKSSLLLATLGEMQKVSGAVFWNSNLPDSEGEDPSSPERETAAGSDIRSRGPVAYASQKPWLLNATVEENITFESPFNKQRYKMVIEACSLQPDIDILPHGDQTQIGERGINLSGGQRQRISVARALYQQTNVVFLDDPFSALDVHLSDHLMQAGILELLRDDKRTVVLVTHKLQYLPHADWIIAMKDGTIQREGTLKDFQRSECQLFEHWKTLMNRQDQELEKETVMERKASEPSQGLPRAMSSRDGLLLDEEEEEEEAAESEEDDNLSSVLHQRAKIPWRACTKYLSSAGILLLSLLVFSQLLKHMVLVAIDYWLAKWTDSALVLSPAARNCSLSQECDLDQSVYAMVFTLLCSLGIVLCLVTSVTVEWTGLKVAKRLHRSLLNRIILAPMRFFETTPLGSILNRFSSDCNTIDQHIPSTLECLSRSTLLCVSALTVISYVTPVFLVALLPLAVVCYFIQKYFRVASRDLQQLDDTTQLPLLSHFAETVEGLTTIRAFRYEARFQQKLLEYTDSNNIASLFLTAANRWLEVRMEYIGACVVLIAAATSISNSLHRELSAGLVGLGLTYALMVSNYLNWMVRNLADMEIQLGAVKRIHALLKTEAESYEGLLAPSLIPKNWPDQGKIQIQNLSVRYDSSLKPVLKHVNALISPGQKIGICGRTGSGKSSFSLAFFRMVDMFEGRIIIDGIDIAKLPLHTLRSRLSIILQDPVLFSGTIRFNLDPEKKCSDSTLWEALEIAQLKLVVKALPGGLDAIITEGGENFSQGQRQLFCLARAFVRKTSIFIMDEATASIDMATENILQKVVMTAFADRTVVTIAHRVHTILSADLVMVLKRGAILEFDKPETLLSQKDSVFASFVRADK

Results are given in words; binding and its absence hold for the method and conditions named. Some results given as binding are weak or reduced against the parent protein; the word gives no strength.

For the substance “SUR1 from Mesocricetus auratus (maSUR1), as the SUR1 subunit of H175K_(cryoEM) (from UniProt A0A1U7R319)”, the binding entry was “binds”.

For the origin of these results see paper doi:10.1101/2021.11.29.470334 (bioRxiv, 2021).
